Experimental data published in PMC7994887.
No constants are given. Whether binding was seen depends on the method and setting. For some of these results: Binding seen in cells or lysates may run through a third protein. Some binding calls cover weakened binding; strength is not graded here. Sequences can lack the tags named with a protein.

T1: AtSAUR32 (SMALL AUXIN UP RNA32 protein), pGBKT7 bait fusion (Arabidopsis thaliana) (UniProt Q9ZUZ3)
T1 sequence: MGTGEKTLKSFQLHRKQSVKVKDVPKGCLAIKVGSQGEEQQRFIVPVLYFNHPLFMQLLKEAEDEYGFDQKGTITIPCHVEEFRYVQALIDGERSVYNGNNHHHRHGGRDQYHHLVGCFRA

T2: AtSAUR32 fused with N-YFP (BiFC construct) (Arabidopsis thaliana) (UniProt Q9ZUZ3)
T2 sequence: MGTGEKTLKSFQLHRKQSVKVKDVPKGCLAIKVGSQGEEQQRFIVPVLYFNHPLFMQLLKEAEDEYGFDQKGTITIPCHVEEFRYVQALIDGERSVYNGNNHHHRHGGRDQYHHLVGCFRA


Legend:
[1] = target: T1, AtSAUR32 (SMALL AUXIN UP RNA32 protein), pGBKT7 bait fusion (Arabidopsis thaliana); test: two-hybrid; bait in pGBKT7, prey in pGADT7, yeast strain AH109; growth on SD/-Leu-Trp-His-Ade dropout medium, 30°C for 3 days
[2] = target: T2, AtSAUR32 fused with N-YFP (BiFC construct) (Arabidopsis thaliana); test: split reporter; BiFC with N-YFP and C-YFP fusions co-infiltrated into Nicotiana benthamiana by Agrobacterium; confocal microscopy 48 h after co-infiltration

Row | binding [1] | binding [2] | Binder
1 | binds | – | HAI1 (HIGHLY ABA-INDUCED 1), clade-A PP2C, pGADT7 prey fusion (protein, UniProt Q9FIF5 1-413) MAEICYENETMMIETTATVVKKATTTTRRRERSSSQAARRRRMEIRRFKFVSGEQEPVFVDGDLQRRRRRESTVAASTSTVFYETAKEVVVLCESLSSTVVALPDPEAYPKYGVASVCGRRREMEDAVAVHPFFSRHQTEYSSTGFHYCGVYDGHGCSHVAMKCRERLHELVREEFEADADWEKSMARSFTRMDMEVVALNADGAAKCRCELQRPDCDAVGSTAVVSVLTPEKIIVANCGDSRAVLCRNGKAIALSSDHKPDRPDELDRIQAAGGRVIYWDGPRVLGVLAMSRAIGDNYLKPYVISRPEVTVTDRANGDDFLILASDGLWDVVSNETACSVVRMCLRGKVNGQVSSSPEREMTGVGAGNVVVGGGDLPDKACEEASLLLTRLALARQSSDNVSVVVVDLRRDT
2 | – | binds | HAI1 fused with C-YFP (BiFC construct) (protein, UniProt Q9FIF5 1-413) MAEICYENETMMIETTATVVKKATTTTRRRERSSSQAARRRRMEIRRFKFVSGEQEPVFVDGDLQRRRRRESTVAASTSTVFYETAKEVVVLCESLSSTVVALPDPEAYPKYGVASVCGRRREMEDAVAVHPFFSRHQTEYSSTGFHYCGVYDGHGCSHVAMKCRERLHELVREEFEADADWEKSMARSFTRMDMEVVALNADGAAKCRCELQRPDCDAVGSTAVVSVLTPEKIIVANCGDSRAVLCRNGKAIALSSDHKPDRPDELDRIQAAGGRVIYWDGPRVLGVLAMSRAIGDNYLKPYVISRPEVTVTDRANGDDFLILASDGLWDVVSNETACSVVRMCLRGKVNGQVSSSPEREMTGVGAGNVVVGGGDLPDKACEEASLLLTRLALARQSSDNVSVVVVDLRRDT

More lines, now with the values behind:

Row | Binder | binding [1] | binding [2]
3 | AIP1 (AKT1-Interacting Phosphatase1), clade-A PP2C, pGADT7 prey fusion (protein, UniProt Q9LNW3 1-442) MADICYEDETSACESRPLWSSRKWRIGVQRFRMSPSEMNPTASTTEEEDKSEGIYNKRNKQEEYDFMNCASSSPSQSSPEEESVSLEDSDVSISDGNSSVNDVAVIPSKKTVKETDLRPRYGVASVCGRRRDMEDAVALHPSFVRKQTEFSRTRWHYFGVYDGHGCSHVAARCKERLHELVQEEALSDKKEEWKKMMERSFTRMDKEVVRWGETVMSANCRCELQTPDCDAVGSTAVVSVITPEKIIVANCGDSRAVLCRNGKAVPLSTDHKPDRPDELDRIQEAGGRVIYWDGARVLGVLAMSRAIGDNYLKPYVTSEPEVTVTDRTEEDEFLILATDGLWDVVTNEAACTMVRMCLNRKSGRGRRRGETQTPGRRSEEEGKEEEEKVVGSRKNGKRGEITDKACTEASVLLTKLALAKHSSDNVSVVVIDLRRRRKRHVA | binds | –
4 | AIP1 fused with C-YFP (BiFC construct) (protein, UniProt Q9LNW3 1-442) MADICYEDETSACESRPLWSSRKWRIGVQRFRMSPSEMNPTASTTEEEDKSEGIYNKRNKQEEYDFMNCASSSPSQSSPEEESVSLEDSDVSISDGNSSVNDVAVIPSKKTVKETDLRPRYGVASVCGRRRDMEDAVALHPSFVRKQTEFSRTRWHYFGVYDGHGCSHVAARCKERLHELVQEEALSDKKEEWKKMMERSFTRMDKEVVRWGETVMSANCRCELQTPDCDAVGSTAVVSVITPEKIIVANCGDSRAVLCRNGKAVPLSTDHKPDRPDELDRIQEAGGRVIYWDGARVLGVLAMSRAIGDNYLKPYVTSEPEVTVTDRTEEDEFLILATDGLWDVVTNEAACTMVRMCLNRKSGRGRRRGETQTPGRRSEEEGKEEEEKVVGSRKNGKRGEITDKACTEASVLLTKLALAKHSSDNVSVVVIDLRRRRKRHVA | – | binds
